In publication PMC8532385:
These are yes or no findings as the source states them, for the method shown. In cells and extracts the contact can be indirect. Some results given as binding are weak or reduced against the parent protein; the word gives no strength. Sequences can lack the tags named with a protein.

Sequences of proteins named here, by UniProt entry; tags and fusion partners are left off.
UniProt O00429: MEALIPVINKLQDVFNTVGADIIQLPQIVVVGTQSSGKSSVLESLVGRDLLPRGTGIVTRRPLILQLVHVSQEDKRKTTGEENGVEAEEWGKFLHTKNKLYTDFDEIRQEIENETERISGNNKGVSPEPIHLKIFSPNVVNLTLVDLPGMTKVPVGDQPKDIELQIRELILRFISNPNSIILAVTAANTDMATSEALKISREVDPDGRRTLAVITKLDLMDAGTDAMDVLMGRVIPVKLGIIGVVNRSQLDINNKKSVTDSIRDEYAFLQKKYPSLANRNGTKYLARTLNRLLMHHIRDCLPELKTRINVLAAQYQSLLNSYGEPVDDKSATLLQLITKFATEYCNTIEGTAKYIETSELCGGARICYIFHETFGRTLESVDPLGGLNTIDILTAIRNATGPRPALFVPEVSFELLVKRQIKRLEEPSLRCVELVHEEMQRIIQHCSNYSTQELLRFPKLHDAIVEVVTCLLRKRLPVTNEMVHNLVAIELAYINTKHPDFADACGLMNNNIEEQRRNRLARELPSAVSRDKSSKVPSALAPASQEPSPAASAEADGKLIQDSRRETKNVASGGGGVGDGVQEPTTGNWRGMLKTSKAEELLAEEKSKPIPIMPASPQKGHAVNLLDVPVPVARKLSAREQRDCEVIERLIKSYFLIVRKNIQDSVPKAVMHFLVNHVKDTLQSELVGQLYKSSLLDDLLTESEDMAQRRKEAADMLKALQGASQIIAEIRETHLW

Legend:
Assay in all cases: co-IP; 293T cells transfected with V5-tagged MIEF1, MIEF2 or deletion mutants, in vivo crosslinked with 1% formaldehyde (10 min, room temperature), lysed in 1% NP-40 with sonication; anti-V5 agarose beads 2 h at room temperature; Western blot of endogenous partners
[1] = target: T1, MIEF1^Δ173-216 (V5-tagged) (human) (UniProt Q9NQG6)
T1 sequence: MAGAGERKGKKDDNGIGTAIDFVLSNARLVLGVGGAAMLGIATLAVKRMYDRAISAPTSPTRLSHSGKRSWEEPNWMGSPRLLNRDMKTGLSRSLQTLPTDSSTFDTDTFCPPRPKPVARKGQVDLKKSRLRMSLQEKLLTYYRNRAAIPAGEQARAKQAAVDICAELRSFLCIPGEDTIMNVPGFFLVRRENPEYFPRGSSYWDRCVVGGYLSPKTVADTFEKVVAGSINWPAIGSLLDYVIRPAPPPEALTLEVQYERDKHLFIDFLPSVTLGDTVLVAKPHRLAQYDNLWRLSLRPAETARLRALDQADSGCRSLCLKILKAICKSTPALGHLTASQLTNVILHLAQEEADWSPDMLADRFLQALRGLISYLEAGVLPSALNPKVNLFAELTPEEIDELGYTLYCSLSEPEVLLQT

[2] = target: T2, MIEF2^Δ50-104 (V5-tagged, self-association-deficient mutant) (human) (UniProt Q96C03)
T2 sequence: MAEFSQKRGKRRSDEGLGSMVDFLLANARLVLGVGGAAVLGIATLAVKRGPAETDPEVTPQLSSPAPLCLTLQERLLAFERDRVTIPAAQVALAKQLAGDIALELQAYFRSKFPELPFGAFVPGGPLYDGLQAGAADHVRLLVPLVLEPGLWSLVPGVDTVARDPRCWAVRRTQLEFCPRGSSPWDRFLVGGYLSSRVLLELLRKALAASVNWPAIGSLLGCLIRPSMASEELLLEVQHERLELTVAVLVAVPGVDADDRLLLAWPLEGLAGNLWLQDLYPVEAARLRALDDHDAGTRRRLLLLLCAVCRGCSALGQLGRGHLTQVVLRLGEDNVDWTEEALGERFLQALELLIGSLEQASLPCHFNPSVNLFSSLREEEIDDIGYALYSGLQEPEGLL

[3] = target: T3, MIEF2^Δ425-454 (V5-tagged) (human) (UniProt Q96C03)
T3 sequence: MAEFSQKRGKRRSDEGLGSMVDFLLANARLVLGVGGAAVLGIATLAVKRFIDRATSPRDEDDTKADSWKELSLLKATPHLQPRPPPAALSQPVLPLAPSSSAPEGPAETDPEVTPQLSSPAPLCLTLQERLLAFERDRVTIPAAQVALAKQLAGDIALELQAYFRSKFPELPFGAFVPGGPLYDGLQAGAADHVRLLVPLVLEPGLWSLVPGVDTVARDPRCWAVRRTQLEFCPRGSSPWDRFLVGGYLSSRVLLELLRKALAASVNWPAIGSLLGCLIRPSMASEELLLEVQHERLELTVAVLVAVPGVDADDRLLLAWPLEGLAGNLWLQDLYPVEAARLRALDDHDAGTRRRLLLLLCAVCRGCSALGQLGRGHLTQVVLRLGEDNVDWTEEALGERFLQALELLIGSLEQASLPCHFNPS

[4] = target: T4, MIEF1^Δ50-108 (V5-tagged) (human) (UniProt Q9NQG6)
T4 sequence: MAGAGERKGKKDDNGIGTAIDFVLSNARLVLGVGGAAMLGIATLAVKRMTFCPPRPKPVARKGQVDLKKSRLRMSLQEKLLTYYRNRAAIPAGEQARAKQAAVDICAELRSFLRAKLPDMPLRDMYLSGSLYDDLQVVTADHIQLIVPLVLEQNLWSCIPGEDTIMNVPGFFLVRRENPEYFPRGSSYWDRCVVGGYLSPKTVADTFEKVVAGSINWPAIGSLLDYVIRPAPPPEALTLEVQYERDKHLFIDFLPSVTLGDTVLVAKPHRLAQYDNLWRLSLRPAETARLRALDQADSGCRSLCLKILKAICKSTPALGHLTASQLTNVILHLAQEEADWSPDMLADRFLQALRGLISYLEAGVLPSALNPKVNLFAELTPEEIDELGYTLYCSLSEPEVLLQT

[5] = target: T5, MIEF1^Δ219-289 (V5-tagged) (human) (UniProt Q9NQG6)
T5 sequence: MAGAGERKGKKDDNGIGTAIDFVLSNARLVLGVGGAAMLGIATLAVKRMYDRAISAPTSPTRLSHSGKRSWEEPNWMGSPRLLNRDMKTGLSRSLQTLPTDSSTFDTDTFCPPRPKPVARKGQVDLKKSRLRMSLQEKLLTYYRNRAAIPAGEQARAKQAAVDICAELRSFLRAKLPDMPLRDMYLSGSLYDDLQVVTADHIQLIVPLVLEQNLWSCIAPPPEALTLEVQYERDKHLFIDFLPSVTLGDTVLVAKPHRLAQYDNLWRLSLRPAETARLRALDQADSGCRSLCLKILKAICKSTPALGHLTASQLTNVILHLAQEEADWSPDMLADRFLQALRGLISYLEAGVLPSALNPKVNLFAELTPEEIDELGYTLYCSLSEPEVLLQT

- binding [1]: no binding
- binding [2]: binds
- binding [3]: binds
- binding [4]: binds
- binding [5]: no binding
Substance: dynamin-related protein 1 (Drp1), endogenous (from UniProt O00429 1-736)
